{"source": "patent US20110293635A1", "binders": {"B1": {"name": "endogenous Toll-like Receptor 14 (TLR14) (receptor)", "chain": "VCPERCDCQHPQHLLCTNRGLRVVPKTSSLPSPHDVLTYSLGGNFITNITAFDFHRLGQLRRLDLQYNQIRSLHPKTFEKLSRLEELYLGNNLLQALAPGTLAPLRKLRILYANGNEISRLSRGSFEGLESLVKLRLDGNALGALPDAVFAPLGNLLYLHLESNRIRFLGKNAFAQLGKLRFLNLSANELQPSLRHAATFAPLRSLSSLILSANSLQHLGPRIFQHLPRLGLLSLRGNQLTHLAPEAFWGLEALRELRLEGNRLSQLPTALLEPLHSLEALDLSGNELSALHPATFGHLGRLRELSLRNNALSALSGDIFAASPALYRLDLDGNGWTCDCRLRGLKRWMGDWHSQGRLLTVFVQCRHPPALRGKYLDYLDDQQLQNGSCADPSPSASLTADRRRQPLPTAAGEEMTPPAGLAEELPPQPQLQQQGRFLAGVAWDGAARELVGNRSALRLSRRGPGLQQPSPSVAAAAGPAPQSLDLHKKPQRGRPTRADPALAEPTPTASPGSAPSPAGDPWQRATKHRLGTEHQERAAQSDGGAGLPPLVSDPCDFNKFILCNLTVEAVGADSASVRWAVREHRSPRPLGGARFRLLFDRFGQQPKFHRFVYLPESSDSATLRELRGDTPYLVCVEGVLGGRVCPVAPRDHCAGLVTLPEAGSRGGVDYQLLTLALLTVNALLVLLALAAWASRWLRRKLRARRKGGAPVHVRHMYSTRRPLRSMGTGVSADFSGFQSHRPRTTVCALSEADLIEFPCDRFMDSAGGGAGGSLRREDRLLQRFAD"}}, "key": {"[1]": {"target": "CD14 (over-expressed in transfected HEK293 cells) (human)", "assay": "co-immunoprecipitation from CD14-transfected HEK293 cells, immunoblot"}, "[2]": {"target": "CD14 (over-expressed in transfected HEK293 cells) (human)", "assay": "co-immunoprecipitation (antibody on protein A/G beads) from CD14-transfected HEK293 cells, LPS for 0, 2 or 24 hours, immunoblot for TLR14 and CD14"}}, "note": "Results are given in words; binding and its absence hold for the method and conditions named. Binding seen in cells or lysates may run through a third protein. A result given as binding can be weak or reduced; the word gives no strength.", "data": [{"binder": "B1", "values": [{"measurement": "binding", "setting": "[1]", "value": "binds"}, {"measurement": "binding", "setting": "[2]", "value": "binds"}]}]}
